Data from PubChem BioAssay AID1347423 (Functional Genomics Laboratory (NCATS/FGL), 2020).
Among all 52,000 sequences or so, about 210 (0.4%) were called active.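 The calls were made as follows: active = gene whose silencing raises cell survival under the drug, median off-target-corrected z-score across its silencing RNAs 2 or more; inactive = the rest.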 This is one part of the list.

Assay: Resistance to Poly (ADP-Ribose) Polymerase inhibitor: Gene Identification via Genome-wide siRNA Screen
Details: mouse BRCA2 R2336H ES cells, olaparib, CellTiter-Glo viability; hits give high values
Outline: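 Genome-wide siRNA screen (3 siRNAs/gene, 20 nM) in mouse ES cells carrying hypomorphic BRCA2 R2336H; olaparib 500 nM added 48 h post-transfection, CellTiter-Glo viability 72 h later. Normalized to plate-median negative control; MAD z-scores, gene median, seed-adjusted.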

| Sequence | z-score |
| --- | --- |
| GGAAGUCUGCCUGUUCUUGTT against Galnt10 | inactive: -0.0664 |
| GCUCUAUGGAUCCUUGGAGTT against A630056B21Rik | inactive: -2.44 |
| CGUUUGACCAAAACAGAAUTT against Fbxw10 | inactive: 0.184 |
| GCAGGUUAGAGUCACUUGUTT against LOC330863 | inactive: 0.185 |
| GCGGUUUGUCUUCAACAAGTT against Il1b | inactive: 1.21 |
| CCUUAUGGGUAGAAAACCUTT against Mtmr2 | inactive: 2.16 |
| CCGUCCUUCUGAGAAAUAATT against Tfip11 | inactive: -0.87 |
| CCUCUAGAUAGUGUUAGAGTT against Smarcd1 | inactive: -0.383 |
| CCUACCUUCGAAUCUCAGUTT against Dusp15 | inactive: 0.155 |
| GGUUGGAUUGGGAUUUGAATT against Vdac3 | inactive: -1.35 |
| GCUCAGCUAUCAAAACUUUTT against 9130017C17Rik | inactive: 1.74 |
| GGAAGGCCCUAGAAAGGACTT against A130033B22 | inactive: -0.00211 |
| CCUUUAUACCCAAUACCUATT against Sca2 | inactive: 0.904 |
| GCCUAUACAUCGGACAAUCTT against Apcs | inactive: 0.426 |
| GGCAACUUUGAAGUCUUGATT against Dntt | inactive: -0.582 |
| GCCUCCUGAAUGAUGACAUTT against Klk24 | inactive: -0.244 |
| GGAAUGUUCUGUCGCUAUGTT against Nrp1 | inactive: 0.0552 |
| GCAGUUCUGGUUCUGUCUGTT against BC024322 | inactive: -0.0177 |
| GCUCAGUUGUUUUUCAUUCTT against Olfr782 | inactive: 0.211 |
| GAUGGUCCAGAGCGACUUCTT against Pou3f3 | inactive: -0.0787 |
| GGAGCAAAGUCUAAUAGCATT against Ercc1 | inactive: -0.0951 |
| GCCACUCAACAUUAAAUCCTT against Tbc1d8 | inactive: 1.76 |
| GUGUGGUACUCAACCCACUTT against Gpr40 | inactive: 0.157 |
| CCUCAAAGUGUUAGGAUGATT against Slc35e4 | inactive: 0.719 |
| GGAAAUUCUAGUCAAAUGCTT against Sp7 | inactive: -0.201 |
| GGCUCAGUCUCAGGUGUUCTT against A630077B13Rik | inactive: 0.66 |
| GGAUGGUCACGGAAGUUCUTT against AI451006 | inactive: 0.192 |
| GGUUUUGACUCUGUGAUAUTT against Sh3kbp1 | inactive: 0.827 |
| CGCUGAUGAACUCUUUUCUTT against Ces1 | inactive: 0.4 |

An excerpt of these results, tab-delimited:
Sequence	z-score
GGCUCAGUCUCAGGUGUUCTT against A630077B13Rik	inactive: 0.66
GGAUGGUCACGGAAGUUCUTT against AI451006	inactive: 0.192
